The list shows a part of the results. Single values are uncertain here, since repeats match poorly.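 Test systems: triple-negative MDA-MB-231 breast cancer cells and their brain-metastatic MDA-MB-231BRM derivative, each stably carrying empty vector, full-length GLI1 or truncated tGLI1. Viability after 48 h was read by CellTiter-Blue and expressed against 1% DMSO vehicle. A compound was tGLI1-selective if it lowered viability 20% more in tGLI1 cells than in vector and GLI1 cells.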
Tests used:
Test in all cases: cell viability relative to vehicle (DMSO) control (fraction); higher = more viable cells (less growth inhibition)
Conditions in all cases: treatment time 48 h
MDA-MB-231 GLI1 = tested on: MDA-MB-231 GLI1
MDA-MB-231 Vector = tested on: MDA-MB-231 Vector
MDA-MB-231 tGLI1 = tested on: MDA-MB-231 tGLI1
MDA-MB-231BRM GLI1 = tested on: MDA-MB-231BRM GLI1
MDA-MB-231BRM Vector = tested on: MDA-MB-231BRM Vector
MDA-MB-231BRM tGLI1 = tested on: MDA-MB-231BRM tGLI1

Compound | cell viability (MDA-MB-231 GLI1; 0.05 µM) | cell viability (MDA-MB-231 GLI1; 0.5 µM) | cell viability (MDA-MB-231 GLI1; 5 µM) | cell viability (MDA-MB-231 Vector; 0.05 µM) | cell viability (MDA-MB-231 Vector; 0.5 µM) | cell viability (MDA-MB-231 Vector; 5 µM) | cell viability (MDA-MB-231 tGLI1; 0.05 µM) | cell viability (MDA-MB-231 tGLI1; 0.5 µM) | cell viability (MDA-MB-231 tGLI1; 5 µM) | cell viability (MDA-MB-231BRM GLI1; 0.05 µM) | cell viability (MDA-MB-231BRM GLI1; 0.5 µM) | cell viability (MDA-MB-231BRM GLI1; 5 µM) | cell viability (MDA-MB-231BRM Vector; 0.05 µM) | cell viability (MDA-MB-231BRM Vector; 0.5 µM) | cell viability (MDA-MB-231BRM Vector; 5 µM) | cell viability (MDA-MB-231BRM tGLI1; 0.05 µM) | cell viability (MDA-MB-231BRM tGLI1; 0.5 µM) | cell viability (MDA-MB-231BRM tGLI1; 5 µM)
COc1cccc2cc(-c3nc([C@H]4CC[C@H](C(=O)O)CC4)n4ncnc(N)c34)[nH]c12 | 1.11 | 0.77 | 0.278 | 0.902 | 0.447 | 0.309 | 1.03 | 0.726 | 0.234 | 1.04 | 0.985 | 0.732 | 1.04 | 1.02 | 0.726 | 1.03 | 1.01 | 0.887
Cc1ccc(Nc2nccc(N(C)c3ccc4c(C)n(C)nc4c3)n2)cc1S(N)(=O)=O | 1.43 | 1.87 | 1.71 | 1.48 | 1.24 | 1.14 | 1.19 | 1.52 | 1.02 | 0.899 | 0.959 | 0.972 | 0.882 | 0.929 | 0.94 | 0.919 | 0.877 | 0.959
O=C(NC[C@H](O)CO)c1ccncc1Nc1ccc(I)cc1F | 0.996 | 0.779 | 0.804 | 1.34 | 0.633 | 0.55 | 0.881 | 0.197 | 0.658 | 1.19 | 1.13 | 0.924 | 0.727 | 1.16 | 0.961 | 1.18 | 0.624 | 0.954
COc1c(C)c(C(=O)c2ccc(N)c(C(=O)O)c2)n2ccccc12 | 1.29 | 1.75 | 1.27 | 1.29 | 1.4 | 1.56 | 1.26 | 1.47 | 1.52 | 0.99 | 0.966 | 1.01 | 1.09 | 1.03 | 1.03 | 0.971 | 0.995 | 1.01
CC(C)CCN1c2nc(Nc3cc(F)c(O)c(F)c3)ncc2N(C)C(=O)C1C (centres undefined) | 1.18 | 0.95 | 0.301 | 1.22 | 1.01 | 0.575 | 1.21 | 1.02 | 0.394 | 0.992 | 0.838 | 0.771 | 0.971 | 0.945 | 0.869 | 1.01 | 0.959 | 0.786
CCNc1nc(Nc2cc(F)c(C(=O)N3CCOCC3)cc2OC)ncc1C(F)(F)F | 1.31 | 1.87 | 0.802 | 0.705 | 0.71 | 0.292 | 0.675 | 0.758 | 0.468 | 0.429 | 0.375 | 0.266 | 0.483 | 0.471 | 0.245 | 0.756 | 0.545 | 0.447
Cc1ncc(-c2ccnc(Nc3ccc(S(C)(=O)=O)cc3)n2)n1C(C)C | 1.44 | 1.07 | 0.039 | 1.31 | 0.892 | 0.157 | 1.43 | 1.04 | 0.0698 | 1.08 | 1.17 | 0.854 | 1.11 | 1.18 | 0.84 | 1.14 | 1.21 | 0.768
Cc1c(NC(=O)OC[C@@H]2COCCN2)cn2ncnc(Nc3ccc4c(cnn4Cc4cccc(F)c4)c3)c12 | 1.45 | 1.68 | 0.978 | 1.56 | 1.19 | 0.815 | 1.16 | 1.48 | 0.89 | 0.957 | 0.985 | 0.761 | 0.921 | 0.874 | 0.794 | 1.06 | 0.858 | 0.863

Reference: the supplement of paper PMC9454738
